This is an account of results in PubChem BioAssay AID1498 (National Center for Advancing Translational Sciences (NCATS), 2009).

This is one part of the list. The main result of the screen is listed elsewhere. These columns were measured beside it and carry no call. Compounds called inactive in the main read-out are mostly missing here. Words in brackets tell the shape of the fitted curve; partial curves, single points and poor fits give uncertain potencies.

This assay in a line: Confirmation Concentration-Response Assay for Modulators of Lamin A Splicing. To be noted: HeLa lamin A splicing GFP/RFP minigene, Acumen, 48 h; for ratio activity: GFP/RFP ratio at top concentration; for ratio activity / RFP activity: at 46.1 µM; for RFP activity: RFP channel at top concentration. The method, boiled down:
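S3 HeLa cells stably expressing lamin A-EGFP splicing minigene and DsRed2, 600 cells/well in Opti-MEM with 2% FBS, compounds 48 h at 37C; laser-scanning cytometry (488 nm), GFP/RFP total intensity ratio analysed; 0.5% DMSO.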

[1] abbreviates: measured here: GFP/RFP ratio splicing readout.
[2] abbreviates: measured here: RFP viability/nonspecific counter channel.

For `Cc1noc(C)c1-c1ccc2ncnc(NCc3cccc(F)c3)c2c1`, the ratio activity is -12.6% and the RFP activity was -4.31%. Further, the AC50 (in general, the midpoint of the concentration-response curve, whichever way the signal moves) under setting [1] was 2.51 µM [falling, full curve, poor fit].
As for `Cc1cc(C)nc(Sc2nc(C)nc3c2oc2ccccc23)n1`, the ratio activity is -47.2% and the RFP activity was 2.04%. Also, under setting [1], the AC50 is 3.55 µM [falling, full curve, poor fit].
Regarding `Oc1c(Cl)cc(Cl)c(Cl)c1Cc1c(O)c(Cl)cc(Cl)c1Cl`, the ratio activity is -12.9% and the RFP activity is 10.2%. For the same molecule, the AC50 under setting [2] was 0.447 µM [rising, full curve, poor fit].
As for `Cc1noc(C)c1-c1ccc2ncnc(NCc3ccc(-c4ccccc4)cc3)c2c1`, the ratio activity was -24.1% and the RFP activity was -12.5%. Also, the concentration at half-maximal activity (AC50) under setting [1] was 7.08 µM [falling, full curve, poor fit].
Regarding `CC(=O)[C@@]1(O)CC[C@H]2[C@H]3C[C@@H](C)C4=CC(=O)C=C[C@]4(C)[C@@]3(F)[C@@H](O)C[C@]21C`, the ratio activity was -4.69% and the RFP activity is -28%. Also, under setting [2], the AC50 is 2.51 µM [falling, full curve, poor fit].
Regarding `Cc1noc(C)c1-c1ccc2ncnc(NCc3ccc(C(F)(F)F)cc3)c2c1`, the ratio activity is -31.1% and the RFP activity was -0.249%. The concentration at half-maximal activity (AC50) under setting [1] was 11.2 µM [falling, partial curve, poor fit].
As for `Cc1nn(Cc2ccccc2Cl)c(C)c1C(=O)Nc1nnc(C2CC2)s1`, the ratio activity was -39.5% and the RFP activity was -40%. Besides, the AC50 under setting [1] was 1.78 µM [falling, full curve]. In addition, under setting [2], the AC50 was 11.2 µM [falling, partial curve, poor fit].
`Cc1noc(C)c1-c1ccc2ncnc(NCc3cc(F)cc(F)c3)c2c1`: the ratio activity is -30.4% and the RFP activity was 18.3%. Besides, under setting [1], the AC50 was 10 µM [falling, partial curve, poor fit].
